# Laboratory results reported in paper PMC7504130.
# Chains of the proteins cited; added tags and fusions are not shown. Lines headed by an entry give the natural chain unless they say otherwise; changes in a name come on top.
# UniProt P09874, whole entry: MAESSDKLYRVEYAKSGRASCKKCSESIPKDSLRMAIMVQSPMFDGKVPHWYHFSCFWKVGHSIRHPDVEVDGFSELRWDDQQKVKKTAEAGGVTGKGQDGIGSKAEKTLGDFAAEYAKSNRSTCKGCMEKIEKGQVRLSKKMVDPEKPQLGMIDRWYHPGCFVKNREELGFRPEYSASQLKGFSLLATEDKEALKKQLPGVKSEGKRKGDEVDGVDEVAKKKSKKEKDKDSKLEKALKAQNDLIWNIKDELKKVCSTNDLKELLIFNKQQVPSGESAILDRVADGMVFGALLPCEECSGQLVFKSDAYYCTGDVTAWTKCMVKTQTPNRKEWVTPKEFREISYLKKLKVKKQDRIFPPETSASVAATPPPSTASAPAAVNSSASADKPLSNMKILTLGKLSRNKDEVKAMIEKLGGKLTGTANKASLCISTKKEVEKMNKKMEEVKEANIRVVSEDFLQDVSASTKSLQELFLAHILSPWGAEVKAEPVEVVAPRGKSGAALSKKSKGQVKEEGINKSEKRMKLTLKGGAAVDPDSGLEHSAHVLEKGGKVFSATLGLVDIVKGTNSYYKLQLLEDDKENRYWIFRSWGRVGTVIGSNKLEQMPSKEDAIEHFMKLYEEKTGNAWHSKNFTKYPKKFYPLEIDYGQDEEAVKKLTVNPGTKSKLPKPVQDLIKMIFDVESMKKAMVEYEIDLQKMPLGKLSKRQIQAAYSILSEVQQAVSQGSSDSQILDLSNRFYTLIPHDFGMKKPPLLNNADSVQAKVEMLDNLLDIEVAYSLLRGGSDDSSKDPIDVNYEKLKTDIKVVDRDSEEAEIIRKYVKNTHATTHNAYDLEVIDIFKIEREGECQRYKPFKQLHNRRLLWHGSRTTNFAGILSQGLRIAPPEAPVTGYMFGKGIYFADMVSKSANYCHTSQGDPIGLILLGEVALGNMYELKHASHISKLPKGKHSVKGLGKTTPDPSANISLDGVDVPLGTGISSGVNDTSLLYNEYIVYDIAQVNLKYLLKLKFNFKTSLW
# UniProt P09651: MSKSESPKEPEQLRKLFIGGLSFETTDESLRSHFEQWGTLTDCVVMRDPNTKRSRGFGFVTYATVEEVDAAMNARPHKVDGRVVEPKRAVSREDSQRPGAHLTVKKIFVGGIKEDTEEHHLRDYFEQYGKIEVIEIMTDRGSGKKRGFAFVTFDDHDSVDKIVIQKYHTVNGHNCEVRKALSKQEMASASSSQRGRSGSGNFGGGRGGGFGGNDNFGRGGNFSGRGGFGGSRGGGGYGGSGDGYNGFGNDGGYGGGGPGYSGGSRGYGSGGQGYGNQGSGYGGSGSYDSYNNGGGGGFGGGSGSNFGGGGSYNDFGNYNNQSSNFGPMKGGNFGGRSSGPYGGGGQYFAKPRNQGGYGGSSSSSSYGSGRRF
# For at least one entry, the source does not settle the construct or the ends of the probe. For some of these results: Negatives hold for the conditions tested. For some of these results: The comparison behind a weaker result is the experiment's own reference, which may not be listed here. For some of these results: Where cells or extracts were used, other partners may take part. For some of these results: Where a protein sequence is shown, tags need not be part of it. For some of these results: At least one verdict was read from the data and is not stated in words by the source.
# Legend:
# PARP-1 [1] = test: EMSA; settings: EMSA: 20 mM Tris-HCl pH 8, 30 mM KCl, 1.5 mM MgCl2, 1 mM DTT, 8% glycerol, 50 uM ZnAc, 2.5 ng/mL poly[dI-dC], 25 C, 50 nM DNA, commercial protein, label: 5'-Cy5.5
# PARP-1 [2] = test: Trp fluorescence quenching; settings: commercial protein, folded or branched DNA
# GST-hnRNP A1 = test: EMSA; settings: EMSA: 20 mM Tris-HCl pH 8, 30 mM KCl, 1.5 mM MgCl2, 1 mM DTT, 8% glycerol, 50 uM ZnAc, 2.5 ng/mL poly[dI-dC], 25 C, 50 nM DNA; recombinant protein; protein details: GST; label: 5'-Cy5.5; folded or branched DNA
# GST-MAZ = GST-MAZ (UniProt P56270); test: EMSA; settings: EMSA: 20 mM Tris-HCl pH 8, 30 mM KCl, 1.5 mM MgCl2, 1 mM DTT, 8% glycerol, 50 uM ZnAc, 2.5 ng/mL poly[dI-dC], 25 C, 50 nM DNA; recombinant protein; protein details: GST; label: 5'-Cy5.5; folded or branched DNA
# [3] = biological target: T1, MAZ (Panc-1 nuclear extract) (UniProt P56270); test: pull-down; settings: pull-down: 20 mM Tris-HCl pH 7.4, 150 mM KCl, 8% glycerol, 1 mM DTT, 0.1 mM ZnAc, 2.5 ng/uL poly[dI-dC], RT, 80 nM DNA, protein in an extract
# T1 sequence (looked up, limits assumed): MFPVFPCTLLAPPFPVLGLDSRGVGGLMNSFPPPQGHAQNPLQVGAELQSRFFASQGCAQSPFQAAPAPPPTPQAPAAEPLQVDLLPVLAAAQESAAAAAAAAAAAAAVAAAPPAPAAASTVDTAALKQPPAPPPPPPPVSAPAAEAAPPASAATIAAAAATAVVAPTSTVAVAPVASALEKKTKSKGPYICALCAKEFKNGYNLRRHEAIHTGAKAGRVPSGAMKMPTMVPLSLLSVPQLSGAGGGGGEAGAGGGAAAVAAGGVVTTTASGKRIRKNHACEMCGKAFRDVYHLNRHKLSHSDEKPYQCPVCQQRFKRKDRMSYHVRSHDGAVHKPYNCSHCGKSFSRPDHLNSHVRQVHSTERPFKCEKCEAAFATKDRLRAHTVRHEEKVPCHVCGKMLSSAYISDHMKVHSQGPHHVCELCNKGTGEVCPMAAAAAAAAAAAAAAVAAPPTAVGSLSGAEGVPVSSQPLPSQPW
# [4] = biological target: PARP-1 (Panc-1 nuclear extract) (UniProt P09874); test: pull-down; settings: pull-down: 20 mM Tris-HCl pH 7.4, 150 mM KCl, 8% glycerol, 1 mM DTT, 0.1 mM ZnAc, 2.5 ng/uL poly[dI-dC], RT, 80 nM DNA, protein in an extract
# [5] = biological target: hnRNP A1 (Panc-1 nuclear extract) (UniProt P09651); test: pull-down; settings: pull-down: 20 mM Tris-HCl pH 7.4, 150 mM KCl, 8% glycerol, 1 mM DTT, 0.1 mM ZnAc, 2.5 ng/uL poly[dI-dC], RT, 80 nM DNA, protein in an extract
# [6] = up to 34.4-fold PARP-1, single-stranded DNA
# [7] = ~30% quenching, 2 PARP-1 per G4
# [8] = duplex, label: biotin 5' on strand 1
# [9] = duplex, one 8-oxoG in a G-run (position not in text), label: biotin 5' on strand 1
# [10] = duplex, two 8-oxoG (positions not in text), label: biotin 5' on strand 1
# [11] = label: biotin 5', folded or branched DNA
# [12] = one 8-oxoG in a G-run (position not in text), label: biotin 5', folded or branched DNA
# [13] = two 8-oxoG in the 12-nt loop (positions not in text), label: biotin 5', folded or branched DNA
# [14] = very weak, label: biotin 5', folded or branched DNA
sequence,measurement,setting,value
AATAGTAATTGCTTAGCCTG [ODN2],binding result,PARP-1 [1]; [6],no binding
AGGGCGGTGTGGGAAGAGGGAAGAGGGGGAGG [G4 32R unlabelled],binding result,"PARP-1 [2]; ~50% quenching, 2 PARP-1 per G4, Na-cacodylate pH 7.4, 100 mM KCl, 50 uM ZnAc, 20 C",binds
CATCAGAAGGCTAGCAATCA [ODN1],binding result,PARP-1 [1]; [6],no binding
CCTAATGCTGCTAAACTCCC [ODN3],binding result,PARP-1 [1]; [6],no binding
CGGGCCGGCGGGGGAGGAGCGGGGGCCGGGC [Cy5.5-mid2 (G4 mid2)],binding result,GST-hnRNP A1,binds
same,binding result,GST-MAZ,binds
CGGGCCGGCGGGGGAGGAGCGGGGGCCGGGC [G4 mid2 unlabelled],binding result,PARP-1 [2]; [7],binds
CGGGGAGAAGGAGGGGGCCGGGCCGGGC [Cy5.5-mid1 (G4 mid1)],binding result,GST-hnRNP A1,binds
same,binding result,GST-MAZ,binds
CGGGGAGAAGGAGGGGGCCGGGCCGGGC [G4 mid1 unlabelled],binding result,PARP-1 [2]; [7],binds
CGGGGAGAAGGAGGGGGCCGGGCCGGGCCGGCGGGGGAGGAGCGGGGGCCGGGC [Cy5.5-mid (G4 mid)],binding result,GST-hnRNP A1,binds
same,binding result,GST-MAZ,binds
same,binding result,"PARP-1 [1]; little binding, not shown, folded or branched DNA",binds more weakly
TTTTAGGGCGGTGTGGGAAGAGGGAAGAGGGGGAGG / CCTCCCCCTCTTCCCTCTTCCCACACCGCCCT [b-32R duplex],binding result,[3]; [8],binds
same,binding result,[4]; [8],binds
TTTTAGGGCGGTGTGGGAAGAGGGAAGAGGGGGAGG / CCTCCCCCTCTTCCCTCTTCCCACACCGCCCT [b-92 duplex],binding result,[3]; [9],binds
same,binding result,[4]; [9],binds
TTTTAGGGCGGTGTGGGAAGAGGGAAGAGGGGGAGG / CCTCCCCCTCTTCCCTCTTCCCACACCGCCCT [b-96 duplex],binding result,[3]; [10],binds
same,binding result,[4]; [10],binds
TTTTAGGGCGGTGTGGGAAGAGGGAAGAGGGGGAGG [b-32R G4],binding result,[3]; [11],binds
same,binding result,[5]; [11],binds
same,binding result,[4]; [11],binds
TTTTAGGGCGGTGTGGGAAGAGGGAAGAGGGGGAGG [b-92 G4],binding result,[3]; [12],binds
same,binding result,[5]; [12],binds
same,binding result,[4]; [12],binds
TTTTAGGGCGGTGTGGGAAGAGGGAAGAGGGGGAGG [b-96 G4],binding result,[3]; [13],binds
same,binding result,[5]; [13],binds
same,binding result,[4]; [13],binds
TTTTCGGGCCGGCGGGGGAGGAGCGGGGGCCGGG [b-mid2 G4],binding result,[3]; [14],binds more weakly
same,binding result,[5]; [14],binds more weakly
same,binding result,[4]; [11],binds
TTTTCGGGCCGGCGGGGGAGGAGCGGGGGCCGGGC [b-mid2OX G4],binding result,"[4]; two 8-oxoG (positions not in text), label: biotin 5', folded or branched DNA",binds
TTTTCGGGGAGAAGGAGGGGGCCGGGCCGGGC [b-mid1 G4],binding result,[3]; [14],binds more weakly
same,binding result,[5]; [14],binds more weakly
same,binding result,[4]; [11],binds
TTTTCGGGGAGAAGGAGGGGGCCGGGCCGGGC [b-mid1OX G4],binding result,"[4]; one 8-oxoG (position not in text), label: biotin 5', folded or branched DNA",binds
TTTTCGGGGAGAAGGAGGGGGCCGGGCCGGGCCGGCGGGGGAGGAGCGGGGGCCGGGC / GCCCGGCCCCCGCTCCTCCCCCGCCGGCCCGGCCCGGCCCCCTCCTTCTCCCCG [b-mid duplex],binding result,[3]; [8],binds
same,binding result,[5]; [8],no binding
same,binding result,[4]; [8],binds
TTTTCGGGGAGAAGGAGGGGGCCGGGCCGGGCCGGCGGGGGAGGAGCGGGGGCCGGGC [b-mid G4],binding result,[3]; [11],no binding
same,binding result,[5]; [11],no binding
same,binding result,[4]; [11],no binding
TTTTCGGGGAGAAGGAGGGGGCCGGGCCGGGCCGGCGGGGGAGGAGCGGGGGCCGGGC [b-midOX G4],binding result,"[3]; some binding, two 8-oxoG (positions not in text), label: biotin 5', folded or branched DNA",binds more weakly
